In article PMC8081524 one finds binding data, which are given here for one substance.

Results are given in words; binding and its absence hold for the method and conditions named. Binding calls can cover weak binding; strength is not graded here. Sequences can lack the tags named with a protein.

The test addresses T1, GST-Cx34.1 (aa 256-299) (zebrafish (Danio rerio)) (UniProt B3DHR0).
T1 sequence: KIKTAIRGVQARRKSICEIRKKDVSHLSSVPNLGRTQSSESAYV
As to the kind of experiment: pull-down; GST fusions on glutathione resin (10 µl bed) incubated with 15 µl 6xHIS-ZO1b-PDZ1 (7 mg/ml), room temperature, 15 min; washed with 50 mM NaPO4 pH 7.4, 300 mM NaCl; blot with anti-TEV cleavage site antibody; both purified.

Turning to “6xHIS-TEV cleavage site-ZO1b (aa105-207) (zebrafish (Danio rerio)) (domain or fragment)”, the binding entry was “binds”.
